{"source": "PubChem BioAssay AID1259405 (NCATS, 2018)", "test": "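Mouse-designed siRNAs used to find CHO productivity engineering targets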 (primary screen)", "cell system": "Chinese hamster CHO-K1 ovary cells with stable secreted eGFP expression", "knock-down reagent": "single siRNA against mouse genes, 0.8 pmol siRNA per well (2 µl of 400 nM stock)", "time to read-out": "3 days", "read-out": "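Percent of the per-plate non-targeting control median for intracellular GFP per well by laser scanning cytometry and for cell viability by ATP luminescence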", "direction": "GFP, % of control: higher = more GFP per well, higher productivity; viability (ATP), % of control: higher = more viable cells (more ATP)", "active means": "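a knock-down is called active if GFP reaches 120% or more of non-targeting control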", "note": "Here is a random part of about 50,000 deposited reagents. Of all reagents, about 4,000 (8%) were called active. 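Mouse siRNA library applied to hamster cells; one well for each siRNA.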 Reagents against one gene are numbered here."}
{"gene symbol":"Or4c11","reagent":1,"GFP, % of control":57.9,"viability (ATP), % of control":64.1,"outcome":"inactive"}
{"gene symbol":"Or4c11","reagent":2,"GFP, % of control":71.1,"viability (ATP), % of control":79.4,"outcome":"inactive"}
{"gene symbol":"Or4c11","reagent":3,"GFP, % of control":48,"viability (ATP), % of control":81.4,"outcome":"inactive"}
{"gene symbol":"Eif6","reagent":1,"GFP, % of control":92.8,"viability (ATP), % of control":95.1,"outcome":"inactive"}
{"gene symbol":"Eif6","reagent":2,"GFP, % of control":108,"viability (ATP), % of control":79.9,"outcome":"inactive"}
{"gene symbol":"Eif6","reagent":3,"GFP, % of control":85.7,"viability (ATP), % of control":88.6,"outcome":"inactive"}
{"gene symbol":"Clec1a","reagent":1,"GFP, % of control":39.6,"viability (ATP), % of control":35.2,"outcome":"inactive"}
{"gene symbol":"Clec1a","reagent":2,"GFP, % of control":51.2,"viability (ATP), % of control":89.2,"outcome":"inactive"}
{"gene symbol":"Clec1a","reagent":3,"GFP, % of control":78.3,"viability (ATP), % of control":92.4,"outcome":"inactive"}
{"gene symbol":"LTO1","reagent":1,"GFP, % of control":113,"viability (ATP), % of control":58.9,"outcome":"inactive"}
{"gene symbol":"LTO1","reagent":2,"GFP, % of control":74.7,"viability (ATP), % of control":51.7,"outcome":"inactive"}
{"gene symbol":"LTO1","reagent":3,"GFP, % of control":116,"viability (ATP), % of control":78.8,"outcome":"inactive"}
{"gene symbol":"Crebl2","reagent":1,"GFP, % of control":69.7,"viability (ATP), % of control":70.1,"outcome":"inactive"}
{"gene symbol":"Crebl2","reagent":2,"GFP, % of control":145,"viability (ATP), % of control":57.6,"outcome":"active"}
{"gene symbol":"Crebl2","reagent":3,"GFP, % of control":106,"viability (ATP), % of control":82.9,"outcome":"inactive"}

In a second layout: 6 of the entries above.
{"gene symbol": "Or4c11", "reagent": 1, "GFP, % of control": 57.9, "viability (ATP), % of control": 64.1, "outcome": "inactive"}
{"gene symbol": "Or4c11", "reagent": 2, "GFP, % of control": 71.1, "viability (ATP), % of control": 79.4, "outcome": "inactive"}
{"gene symbol": "Or4c11", "reagent": 3, "GFP, % of control": 48, "viability (ATP), % of control": 81.4, "outcome": "inactive"}
{"gene symbol": "Eif6", "reagent": 1, "GFP, % of control": 92.8, "viability (ATP), % of control": 95.1, "outcome": "inactive"}
{"gene symbol": "Eif6", "reagent": 2, "GFP, % of control": 108, "viability (ATP), % of control": 79.9, "outcome": "inactive"}
{"gene symbol": "Eif6", "reagent": 3, "GFP, % of control": 85.7, "viability (ATP), % of control": 88.6, "outcome": "inactive"}

The list goes on.
{"gene symbol":"Or4k44","reagent":1,"GFP, % of control":99,"viability (ATP), % of control":125,"outcome":"inactive"}
{"gene symbol":"Or4k44","reagent":2,"GFP, % of control":65.4,"viability (ATP), % of control":75.2,"outcome":"inactive"}
{"gene symbol":"Or4k44","reagent":3,"GFP, % of control":63.7,"viability (ATP), % of control":96.8,"outcome":"inactive"}
{"gene symbol":"Sprr2j-ps","reagent":1,"GFP, % of control":80.9,"viability (ATP), % of control":46.9,"outcome":"inactive"}
{"gene symbol":"Sprr2j-ps","reagent":2,"GFP, % of control":106,"viability (ATP), % of control":104,"outcome":"inactive"}
{"gene symbol":"Sprr2j-ps","reagent":3,"GFP, % of control":101,"viability (ATP), % of control":86.6,"outcome":"inactive"}
{"gene symbol":"R3hdm4","reagent":1,"GFP, % of control":52.9,"viability (ATP), % of control":62,"outcome":"inactive"}
{"gene symbol":"R3hdm4","reagent":2,"GFP, % of control":56.6,"viability (ATP), % of control":80,"outcome":"inactive"}
{"gene symbol":"R3hdm4","reagent":3,"GFP, % of control":140,"viability (ATP), % of control":96,"outcome":"active"}
{"gene symbol":"Zfp932","reagent":1,"GFP, % of control":67.5,"viability (ATP), % of control":54.1,"outcome":"inactive"}
{"gene symbol":"Zfp932","reagent":2,"GFP, % of control":69.1,"viability (ATP), % of control":90.2,"outcome":"inactive"}
{"gene symbol":"Zfp932","reagent":3,"GFP, % of control":49.6,"viability (ATP), % of control":60.7,"outcome":"inactive"}
{"gene symbol":"Pramel13","reagent":1,"GFP, % of control":228,"viability (ATP), % of control":76.8,"outcome":"active"}
{"gene symbol":"Pramel13","reagent":2,"GFP, % of control":20.4,"viability (ATP), % of control":33.9,"outcome":"inactive"}
{"gene symbol":"Pramel13","reagent":3,"GFP, % of control":49.5,"viability (ATP), % of control":68.9,"outcome":"inactive"}
{"gene symbol":"Sipa1l3","reagent":1,"GFP, % of control":55.9,"viability (ATP), % of control":63.6,"outcome":"inactive"}
{"gene symbol":"Sipa1l3","reagent":2,"GFP, % of control":43.9,"viability (ATP), % of control":46.7,"outcome":"inactive"}
{"gene symbol":"Sipa1l3","reagent":3,"GFP, % of control":63.1,"viability (ATP), % of control":64.4,"outcome":"inactive"}
{"gene symbol":"Afap1l1","reagent":1,"GFP, % of control":61.9,"viability (ATP), % of control":52.8,"outcome":"inactive"}
{"gene symbol":"Afap1l1","reagent":2,"GFP, % of control":45.7,"viability (ATP), % of control":41.8,"outcome":"inactive"}
{"gene symbol":"Afap1l1","reagent":3,"GFP, % of control":90.3,"viability (ATP), % of control":87.5,"outcome":"inactive"}
{"gene symbol":"Tnks","reagent":1,"GFP, % of control":86.1,"viability (ATP), % of control":107,"outcome":"inactive"}
{"gene symbol":"Tnks","reagent":2,"GFP, % of control":82,"viability (ATP), % of control":68.1,"outcome":"inactive"}
{"gene symbol":"Tnks","reagent":3,"GFP, % of control":88.9,"viability (ATP), % of control":76.4,"outcome":"inactive"}
{"gene symbol":"Tnks","reagent":4,"GFP, % of control":93.3,"viability (ATP), % of control":117,"outcome":"inactive"}
{"gene symbol":"Tnks","reagent":5,"GFP, % of control":73.9,"viability (ATP), % of control":115,"outcome":"inactive"}
{"gene symbol":"Tnks","reagent":6,"GFP, % of control":97.2,"viability (ATP), % of control":107,"outcome":"inactive"}
